# Measurements: PubChem BioAssay AID488891 (Broad Institute, 2010)
# All entries are inconclusive by the source's own rule. Clear calls are listed elsewhere.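 The calls were made as follows: active = compounds raising caspase signal with a fitted AC50 no higher than the top valid dose tested; inconclusive = flat fit at partial mid-level activity, or unreliable fit; inactive = the rest.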
# Assay: apoptosis induction, Flag-A1-IRES-BIM fibroblasts – cell-based, alternate A1 construct, Caspase-Glo luminescence, dry powder, A1 inhibitor project, dose response (AID 488891)
# Conditions: MEF Flag-A1-IRES-BIM, 3 h
# Method in brief: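 Test system – mouse embryonic fibroblasts primed with Flag-A1-IRES-BIM construct · Doses – compound dose-response series, pin-transferred on day 2 · Times – 3 h compounds at 37 °C, 1 h detection reagent at RT · Technique – luminescence with CaspaseGlo reagent · Read-out basis – caspase activation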
compound,measurement,value
CC1(C)CCC(c2ccc(Cl)cc2)=C(CN2CCN(c3ccc(C(=O)NS(=O)(=O)c4ccc(N[C@H](CCN5CCOCC5)CSc5ccccc5)c(S(=O)(=O)C(F)(F)F)c4)cc3)CC2)C1,outcome,inconclusive
